These results are taken from publication PMC12697906.

By UniProt entry, the sequences of proteins in these tests, tags left out.
UniProt O60678: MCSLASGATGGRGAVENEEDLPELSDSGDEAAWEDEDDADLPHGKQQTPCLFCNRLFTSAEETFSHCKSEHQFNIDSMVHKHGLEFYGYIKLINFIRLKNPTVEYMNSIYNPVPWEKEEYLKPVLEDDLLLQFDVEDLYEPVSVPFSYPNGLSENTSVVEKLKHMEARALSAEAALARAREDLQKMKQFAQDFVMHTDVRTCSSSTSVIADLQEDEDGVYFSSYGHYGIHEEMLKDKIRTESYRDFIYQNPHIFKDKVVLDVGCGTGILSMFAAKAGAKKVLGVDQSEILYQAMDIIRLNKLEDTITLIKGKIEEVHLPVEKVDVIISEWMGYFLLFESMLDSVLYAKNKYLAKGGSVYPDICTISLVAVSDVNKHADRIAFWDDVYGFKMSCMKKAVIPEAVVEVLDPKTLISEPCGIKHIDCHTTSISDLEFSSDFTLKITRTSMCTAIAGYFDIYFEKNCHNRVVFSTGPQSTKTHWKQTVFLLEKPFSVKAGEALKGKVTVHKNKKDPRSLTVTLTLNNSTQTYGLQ
UniProt P67809: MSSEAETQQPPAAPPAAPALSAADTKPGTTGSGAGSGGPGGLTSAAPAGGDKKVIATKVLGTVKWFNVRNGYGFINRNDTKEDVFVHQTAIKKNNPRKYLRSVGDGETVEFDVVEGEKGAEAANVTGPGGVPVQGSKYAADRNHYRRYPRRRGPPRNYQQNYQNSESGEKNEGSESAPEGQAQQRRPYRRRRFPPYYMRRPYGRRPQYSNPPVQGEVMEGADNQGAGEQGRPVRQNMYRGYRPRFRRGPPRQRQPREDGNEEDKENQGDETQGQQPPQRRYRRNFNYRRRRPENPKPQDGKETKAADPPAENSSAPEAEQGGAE

Results are given in words; binding and its absence hold for the method and conditions named. In cells and extracts the contact can be indirect. Here binding means that the protein was enriched with, or labelled near, the bait; the list need not be complete.

This experiment addresses PRMT3 (human (endogenous in SW480 and HEK293T)) (UniProt O60678). Nature of the experiment: affinity purification with mass spectrometry; anti-PRMT3 immunoprecipitates of HEK293T cell lysates, LC-MS; combined with a public mass spectrometry dataset.

Turning to “Y-box binding protein 1 (YBX1) (from UniProt P67809 1-324)”, the binding result was “binds”.
